PubChem BioAssay AID1671195, Yale University, 2021
This is one part, drawn at random, of about 22,000 reagents tested. About 1,510 of all reagents (6.9%) were called active. 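Active includes knockdowns raising or lowering LDL uptake; positive z-scores mean more uptake, negative mean less.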 No sequences are given here.

Test: 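Genes whose knockdown alters LDL uptake in liver cancer cells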 (primary screen)
System: human Huh7 hepatoma cells
Knock-down reagent: siRNA pool against human genes, 18 nM
Timing: about 2 to 2.5 days of knockdown, then 8 h LDL uptake
Treatment: DiI-labelled LDL at 30 µg/ml for 8 h, in lipoprotein-deficient serum medium
Detection: 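Fluorescent LDL signal imaged in cells, scaled to the plate median, robust z-score for each replicate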
Reading the numbers: robust z-score: higher = more LDL uptake after knockdown
Hit rule: 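Active when two or more replicates show a robust z-score above 2 or below -2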

Target gene | robust z-score, replicate 1 | robust z-score, replicate 2 | robust z-score, replicate 3 | Outcome
PCBP1 | -1.16 | -0.478 | -0.401 | inactive
SMPD5 | -1.21 | -0.362 | -0.323 | inactive
CHRM4 | -0.899 | -0.69 | -0.674 | inactive
NARS1 | 1.2 | 1.6 | 2.02 | inactive
VN1R5 | -1.82 | -1.01 | -2.11 | inactive
PACRGL | 1.44 | 0.533 | 0.702 | inactive
LIAT1 | -0.458 | -0.571 | -0.498 | inactive
MARCHF1 | -1.06 | 0.708 | -0.00134 | inactive
LOC442219 (retired record) | -0.28 | -0.539 | -0.729 | inactive
MYH3 | -0.79 | -0.929 | -0.869 | inactive
GIN1 | 2.07 | 0.782 | 2.28 | active
FKBP15 | 1.13 | 0.905 | 0.102 | inactive
ADAM33 | -1.12 | -1.95 | -1.43 | inactive
FGF10 | 0.0744 | -0.617 | -0.48 | inactive
LOC440079 (retired record) | -0.893 | -0.932 | -1.08 | inactive
CCDC70 | 0.0422 | -0.212 | 0.163 | inactive
CNFN | -0.417 | -0.171 | 0.35 | inactive
CABYR | 0.839 | 1.22 | 2.99 | inactive
POFUT1 | 0.19 | -1.2 | -1.56 | inactive
LOC389392 (retired record) | 0.177 | -0.0644 | -0.0156 | inactive
RPS6KB1 | -0.641 | -0.719 | 0.00328 | inactive
LOC399986 (retired record) | -0.725 | -0.836 | -1.19 | inactive
SUZ12 | 0.379 | -0.0812 | 0.87 | inactive
DVL1 | 0.0896 | 0.217 | 0.0114 | inactive
A2M | -0.0656 | 0.274 | -0.0277 | inactive
FCRLB | 0.729 | -0.303 | -1.1 | inactive
ITGB8 | 1.05 | 0.391 | 1.21 | inactive
LOC441515 (retired record) | -0.0689 | 0.153 | -0.0615 | inactive
